From PubChem BioAssay AID248 (DTP/NCI, 2004)
The list shows only some results of the screen, not a fair sample: it is rich in T/C values a quarter to a half above the control, in often repeated tests (any T/C) and in doses without a T/C. Further doses and runs are listed elsewhere. T/C: endpoint of the treated group in % of that of the vehicle group. Some entries give survivors of the animals treated and no T/C: the source files T/C as zero there, which appears to mark a toxic dose or a test without result, not a measured value. Some survivor counts are full or nearly so, which does not show that the dose was tolerated: the source hardly ever lists a survival T/C far under the control, and the zero likely stands for such cases as well. Counts of survivors are from the toxicity check (mostly the fifth day) where no day follows; animals may have died later. Schedule codes are those of the source, taken here to give the interval after Q, in days (D) or hours (H), and the number of doses after X. Where survival is the endpoint, the PubChem record calls one and a half times the control and up active, and a quarter to a half above the control has no call in these data; cut-offs in other NCI protocols can differ.

System: L1210 leukemia ip in BDF1 mice, survival T/C
Assay: NCI In Vivo Anticancer Drug Screen. Data for tumor model L1210 Leukemia (intraperitoneal) in B6D2F1 (BDF1) mice
Conditions: T/C endpoint: mean survival time, higher T/C = longer survival
[1] = dose: 300.0 mg/kg/injection, schedule: Q01DX001 (ip), vehicle: saline
[2] = dose: 200.0 mg/kg/injection, schedule: Q04DX003 (ip), vehicle: saline with Tween-80
[3] = dose: 400.0 mg/kg/injection, schedule: Q04DX003 (ip), vehicle: saline with Tween-80
[4] = dose: 100.0 mg/kg/injection, schedule: Q01DX009 (ip), vehicle: saline with Tween-80
[5] = dose: 200.0 mg/kg/injection, schedule: Q01DX009 (ip), vehicle: saline with Tween-80
[6] = dose: 400.0 mg/kg/injection, schedule: Q01DX009 (ip), vehicle: saline with Tween-80
[7] = dose: 200.0 mg/kg/injection, schedule: Q01DX009 (ip), vehicle: Klucel (hydroxypropylcellulose) (HPC)
[8] = dose: 400.0 mg/kg/injection, schedule: Q01DX009 (ip), vehicle: Klucel (hydroxypropylcellulose) (HPC)
[9] = dose: 100.0 mg/kg/injection, schedule: Q01DX009 (ip), vehicle: saline
[10] = dose: 400.0 mg/kg/injection, schedule: Q01DX009 (ip), vehicle: saline
[11] = dose: 400.0 mg/kg/injection, schedule: Q01DX001 (ip), vehicle: saline
[12] = dose: 400.0 mg/kg/injection, schedule: Q04DX003 (ip), vehicle: Klucel (hydroxypropylcellulose) (HPC)
[13] = dose: 200.0 mg/kg/injection, schedule: Q01DX009 (ip), vehicle: saline

SMILES: CCN(CC)CCNC(=O)c1ccc2nc(N)sc2c1
- survivor count [1]: 0 of 6

SMILES: C=C(Cl)CSCC
- survivor count [2]: 1 of 6
- survivor count [3]: 0 of 6

SMILES: COc1ccc2c(c1OC(C)=O)-c1cc(OC(C)=O)cc3c1C(C2)N(C)CC3 (stereo unspecified)
- survivor count (dose: 200.0 mg/kg/injection, schedule: Q04DX003 (ip), vehicle: DMSO): 5 of 5
- survivor count (dose: 400.0 mg/kg/injection, schedule: Q04DX003 (ip), vehicle: DMSO): 4 of 5

SMILES: CC(=O)c1ccc(CC(C)C)cc1
- survivor count (dose: 75.0 mg/kg/injection, schedule: Q01DX009 (ip), vehicle: Klucel (hydroxypropylcellulose) (HPC)): 0 of 6

SMILES: COc1ccc(S(=O)(=O)N/N=C/C(=O)O)cc1
- T/C (dose: 25.0 mg/kg/injection, schedule: Q01DX009 (ip), vehicle: saline with Tween-80): 128 % of control
- T/C (dose: 50.0 mg/kg/injection, schedule: Q01DX009 (ip), vehicle: saline with Tween-80): 134 % of control
- T/C [4]: 139 % of control
- survivor count [5]: 6 of 6

SMILES: C/C(=N/N(C)C)c1ccccn1
- survivor count [6]: 3 of 6

SMILES: COc1ccc(C)cc1NC(=O)Nc1ccccc1F
- survivor count [7]: 6 of 6

SMILES: C[N+](C)(C)CSc1ccccc1-n1cccc1
- survivor count (dose: 100.0 mg/kg/injection, schedule: Q01DX009 (ip), vehicle: Klucel (hydroxypropylcellulose) (HPC)): 0 of 6
- survivor count [7]: 0 of 6
- survivor count [8]: 0 of 6

SMILES: CC(C)COCCCN
- survivor count [9]: 2 of 6

SMILES: Cn1c[n+](C)ccc1=O
- survivor count (dose: 400.0 mg/kg/injection, schedule: Q01DX009 (ip), vehicle: water): 2 of 6

SMILES: CCCCNc1ccc(S(=O)(=O)c2ccc(NCCCC)c([N+](=O)[O-])c2)cc1[N+](=O)[O-]
- survivor count (dose: 50.0 mg/kg/injection, schedule: Q01DX009 (ip), vehicle: DMSO): 3 of 3
- survivor count (dose: 100.0 mg/kg/injection, schedule: Q01DX009 (ip), vehicle: DMSO): 2 of 3
- survivor count (dose: 200.0 mg/kg/injection, schedule: Q01DX009 (ip), vehicle: DMSO): 2 of 3
- survivor count (dose: 400.0 mg/kg/injection, schedule: Q01DX009 (ip), vehicle: DMSO): 0 of 3

SMILES: COc1ccc(Cl)cc1NC(=O)Nc1nccs1
- survivor count [8]: 1 of 6

SMILES: CCCCC(C(=O)O)(c1ccccc1)c1ccccc1
- survivor count (dose: 300.0 mg/kg/injection, schedule: Q04DX002 (ip), vehicle: gum acacia): 0 of 3

SMILES: O=c1[nH]cc[nH]1
- T/C [10]: 131 % of control
- T/C (dose: 600.0 mg/kg/injection, schedule: Q01DX009 (ip), vehicle: saline): 130 % of control

SMILES: CCCCn1c(C)nc2c([N+](=O)[O-])cc(C(F)(F)F)cc21
- survivor count (dose: 200.0 mg/kg/injection, schedule: Q01DX001 (ip), vehicle: Klucel (hydroxypropylcellulose) (HPC)): 3 of 3

SMILES: CCC(C)(CC=C(C)C)c1ccncc1 (stereo unspecified)
- survivor count (dose: 200.0 mg/kg/injection, schedule: Q01DX001 (ip), vehicle: saline): 0 of 6
- survivor count [11]: 0 of 6

SMILES: CCCCCCCCCCCCC[n+]1cccc(C#N)c1
- survivor count (dose: 40.0 mg/kg/injection, schedule: Q01DX001 (ip), vehicle: saline): 3 of 6
- survivor count (dose: 75.0 mg/kg/injection, schedule: Q01DX001 (ip), vehicle: acetone): 0 of 6
- survivor count (dose: 150.0 mg/kg/injection, schedule: Q01DX001 (ip), vehicle: acetone): 0 of 6
- survivor count (dose: 300.0 mg/kg/injection, schedule: Q01DX001 (ip), vehicle: acetone): 0 of 6

SMILES: CC1(C)C(C#N)C(=O)N(Cc2ccccc2)C(=O)C1C#N (stereo unspecified)
- survivor count [3]: 5 of 6

SMILES: CCOC(=O)c1ccc(NC(C)=O)o1
- survivor count (dose: 100.0 mg/kg/injection, schedule: Q01DX001 (ip), vehicle: carboxymethylcellulose (CMC)): 0 of 4
- survivor count (dose: 200.0 mg/kg/injection, schedule: Q01DX001 (ip), vehicle: carboxymethylcellulose (CMC)): 0 of 4
- survivor count (dose: 400.0 mg/kg/injection, schedule: Q01DX001 (ip), vehicle: carboxymethylcellulose (CMC)): 1 of 4

SMILES: NC(=S)N/N=C\c1ccc(/C=N/NC(N)=S)cc1
- survivor count [11]: 3 of 4

SMILES: Cc1ccc(S(=O)(=O)N=N/C=C2/C=CC=CN2O)cc1
- T/C (dose: 87.5 mg/kg/injection, schedule: Q01DX009 (ip), vehicle: saline with Tween-80): 131 % of control
- survivor count (dose: 350.0 mg/kg/injection, schedule: Q01DX009 (ip), vehicle: saline with Tween-80): 0 of 6

SMILES: COC1OC(CO)C(O)C(O)C1O (stereo unspecified)
- T/C (dose: 100.0 mg/kg/injection, schedule: Q01DX001 (ip), vehicle: saline): 130 % of control

SMILES: CSc1ccc(OC(=O)Nc2ccccc2F)cc1
- survivor count [5]: 5 of 6

SMILES: O=C1CC2(CCCCC2)C(=O)N1
- survivor count (dose: 75.0 mg/kg/injection, schedule: Q01DX001 (ip), vehicle: saline): 0 of 6
- survivor count (dose: 150.0 mg/kg/injection, schedule: Q01DX001 (ip), vehicle: saline): 0 of 6
- survivor count [1]: 0 of 6

SMILES: N#CSC/C=C/Cl
- survivor count [7]: 0 of 6
- survivor count [12]: 1 of 6

SMILES: CC(C)CCCC(C)CCC1C(=O)NC(=O)NC1=O (stereo unspecified)
- survivor count [1]: 1 of 6

SMILES: c1ccc(CC(Cc2ccccc2)NC2=NCCO2)cc1
- survivor count (dose: 100.0 mg/kg/injection, schedule: Q04DX003 (ip), vehicle: saline with Tween-80): 1 of 6
- survivor count [2]: 1 of 6
- survivor count [3]: 0 of 6

SMILES: CCN1CCN(Cc2ccccc2)C(CCl)C1 (stereo unspecified)
- survivor count (dose: 50.0 mg/kg/injection, schedule: Q01DX009 (ip), vehicle: Klucel (hydroxypropylcellulose) (HPC)): 6 of 6
- survivor count (dose: 100.0 mg/kg/injection, schedule: Q04DX003 (ip), vehicle: Klucel (hydroxypropylcellulose) (HPC)): 2 of 6
- survivor count (dose: 200.0 mg/kg/injection, schedule: Q04DX003 (ip), vehicle: Klucel (hydroxypropylcellulose) (HPC)): 0 of 6
- survivor count [12]: 0 of 6

SMILES: Clc1ccc(CNc2ccc(Cl)c(Cl)c2)cc1
- survivor count (dose: 100.0 mg/kg/injection, schedule: Q04DX002 (ip), vehicle: saline with Tween-80): 2 of 3

SMILES: COc1cc(C(=O)OC2CC34CCNC35CC(OC5(OC)C2O)c2cc3c(cc24)OCO3)ccc1O (stereo unspecified)
- survivor count (dose: 4.0 mg/kg/injection, schedule: Q01DX009 (ip), vehicle: carboxymethylcellulose (CMC)): 6 of 6
- survivor count (dose: 8.0 mg/kg/injection, schedule: Q01DX009 (ip), vehicle: carboxymethylcellulose (CMC)): 5 of 6

SMILES: Cn1nc(N)c2nccnc21
- survivor count [13]: 6 of 6
- survivor count (dose: 400.0 mg/kg/injection, schedule: Q04DX003 (ip), vehicle: alcohol): 1 of 6

SMILES: CCOC(=O)C1CCCCN1 (stereo unspecified)
- survivor count [1]: 4 of 6

SMILES: CC1(C(=O)O)CC12c1ccccc1-c1ccccc12 (stereo unspecified)
- survivor count (dose: 400.0 mg/kg/injection, schedule: Q01DX001 (ip), vehicle: acetone): 3 of 6

SMILES: CC(C)N1CNC(=O)C12CCN(CC1COc3ccccc3O1)CC2 (stereo unspecified)
- survivor count [3]: 1 of 6

SMILES: O=C(O)CCC1CCC(=O)NC1=O (stereo unspecified)
- survivor count (dose: 100.0 mg/kg/injection, schedule: Q04DX002 (ip), vehicle: Klucel (hydroxypropylcellulose) (HPC)): 3 of 3

SMILES: Cc1ccc(C/C(Cc2ccccc2)=N/O)cc1
- survivor count (dose: 400.0 mg/kg/injection, schedule: Q04DX002 (ip), vehicle: Klucel (hydroxypropylcellulose) (HPC)): 1 of 3

SMILES: C[CH2][Pb]([CH2]C)([CH2]C)[S]c1ccc(Cl)cc1
- survivor count (dose: 100.0 mg/kg/injection, schedule: Q04DX002 (sc), vehicle: olive oil, sesame oil, peanut oil): 3 of 3

SMILES: CNCC(C)CN1CCCCCc2ccccc21 (stereo unspecified)
- survivor count [9]: 0 of 6
- survivor count [13]: 0 of 6
- survivor count [10]: 0 of 6

SMILES: CC1CCC(C)C1NC1=NCCO1 (stereo unspecified)
- survivor count [4]: 1 of 6
- survivor count [5]: 0 of 6
- survivor count [6]: 0 of 6
